Record: PubChem BioAssay AID1053208 (Peter MacCallum Cancer Centre, 2014)
The deposit covers about 17,000 reagents; below is a random part of them. 788 of them (4.7%) were called active. 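Calls rest on z-score classes alone; an extra cut-off of viability at most 70% of control was not applied to them.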 Further read-outs or replicates are left out here.

- Aim: 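Genes whose silencing cuts survival of bone tumour cells only with doxorubicin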 (primary screen)
- Cells: mouse osteosarcoma cells, early-passage culture from an engineered mouse model of fibroblastic bone tumour
- Reagent: siRNA pool against mouse genes, 40 nM
- Timing: about 120 h (48 h before drug, then 72 h with drug)
- Treatment: doxorubicin 100 nM for 72 h, roughly 30-40% inhibitory dose
- Measurement: 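Luminescent ATP signal taken as viability with or without 100 nM doxorubicin for 72 h; mean of two wells set against non-targeting siRNA and turned into robust z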
- Scale: viability z-score with doxorubicin: higher = more viable cells under doxorubicin; viability z-score without drug: higher = more viable cells with knock-down alone
- Call rule: 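a pool counts as active when its viability z-score with doxorubicin is -2 or below and its z-score without drug lies between -2 and 2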

Depletion of Elovl2 came out at: combined z-score class no change with or without drug; viability z-score with doxorubicin -0.34; viability z-score without drug 0.67; inactive.
Acvr2b scored combined z-score class no change with or without drug; viability z-score with doxorubicin -0.11; viability z-score without drug 0.84; inactive.
Zfp42 gave combined z-score class no change with or without drug; viability z-score with doxorubicin -0.67; viability z-score without drug -1.35; inactive.
Against Hs6st1 the deposit lists combined z-score class high cell count without drug only; viability z-score with doxorubicin 0.45; viability z-score without drug 2.19; inactive.
For Sdhb the deposit lists combined z-score class no change with or without drug; viability z-score with doxorubicin -0.67; viability z-score without drug 0.51; inactive.
Smim48 showed combined z-score class no change with or without drug; viability z-score with doxorubicin -1.91; viability z-score without drug -0.17; inactive.
Zbtb41 gave combined z-score class no change with or without drug; viability z-score with doxorubicin -1.35; viability z-score without drug -0.17; inactive.
Silencing of Cyp4f39 gave: combined z-score class no change with or without drug; viability z-score with doxorubicin 0.45; viability z-score without drug 0.84; inactive.
For Gphb5 the deposit lists combined z-score class no change with or without drug; viability z-score with doxorubicin -0.22; viability z-score without drug -0.34; inactive.
Ppp1r37 scored combined z-score class no change with or without drug; viability z-score with doxorubicin 1.12; viability z-score without drug 0.17; inactive.
Ogdh showed combined z-score class no change with or without drug; viability z-score with doxorubicin 0.9; viability z-score without drug 0.84; inactive.
Tbx2 scored combined z-score class no change with or without drug; viability z-score with doxorubicin 0.45; viability z-score without drug 0.84; inactive.
Use1 showed combined z-score class high without drug; low with doxorubicin; viability z-score with doxorubicin -2.59; viability z-score without drug 2.19; inactive.
Mucl2 gave combined z-score class no change with or without drug; viability z-score with doxorubicin -0.9; viability z-score without drug -0.51; inactive.
For App, the values are combined z-score class no change with or without drug; viability z-score with doxorubicin -0.22; viability z-score without drug -0.51; inactive.
After knock-down of Skint4, the screen gave combined z-score class no change with or without drug; viability z-score with doxorubicin -0.56; viability z-score without drug -0.51; inactive.
Against Asgr2, the entry reads combined z-score class no change with or without drug; viability z-score with doxorubicin -1.12; viability z-score without drug -0.84; inactive.
Knock-down of Chst5 resulted in: combined z-score class no change with or without drug; viability z-score with doxorubicin 0.45; viability z-score without drug -0.17; inactive.
After knock-down of Cryz, the screen gave combined z-score class no change with or without drug; viability z-score with doxorubicin 0.56; viability z-score without drug 0.17; inactive.
Spag1 showed combined z-score class no change with or without drug; viability z-score with doxorubicin -1.12; viability z-score without drug -0.84; inactive.
With knock-down of Slc35e2 the results were combined z-score class no change with or without drug; viability z-score with doxorubicin -0.22; viability z-score without drug -0.84; inactive.
With knock-down of Tmed2, the record shows combined z-score class no change with or without drug; viability z-score with doxorubicin 1.12; viability z-score without drug -0.17; inactive.
Or10a48 scored combined z-score class no change with or without drug; viability z-score with doxorubicin -0.67; viability z-score without drug 0.67; inactive.
Gpr33 showed combined z-score class no change with or without drug; viability z-score with doxorubicin 0.45; viability z-score without drug 0.34; inactive.
Against Twist1, the values are combined z-score class no change with or without drug; viability z-score with doxorubicin 0.34; viability z-score without drug -0.34; inactive.
Depletion of Dnd1 came out at: combined z-score class no change with or without drug; viability z-score with doxorubicin 1.01; viability z-score without drug 1.85; inactive.
Depletion of Rasl10a resulted in: combined z-score class no change with or without drug; viability z-score with doxorubicin -0.56; viability z-score without drug 0.84; inactive.
With knock-down of Tns4 the results were combined z-score class no change with or without drug; viability z-score with doxorubicin 1.12; viability z-score without drug -0.17; inactive.

Single entries from above.
For “combined z-score class”, Hs6st1 is entered as high cell count without drug only
Entry for Or10a48 under “combined z-score class”: no change with or without drug
Result for Cryz under “combined z-score class”: no change with or without drug
